Source: patent US10464930B2, “Compositions and methods for treating estrogen-related medical disorders” (THE BOARD OF TRUSTEES OF THE UNIVERSITY OF ILLINOIS, priority 2012, dated 2019)
For some assays here: The name of at least one read-out is uncertain. For some assays here: At least one compound was matched to its structure with a doubt left.

Tests used:
[1] = system: primary cortical neurons exposed to OGD; experiment: Oxygen glucose deprivation (OGD) neuroprotection, MTT; assay type: cell-based, rat; conditions: 2 h OGD, survival at 24 h; SERMs 100 nM; normalized to E2 10 nM
[2] = CNS bioavailability by LC-MS/MS; assay type: in vivo, mouse; conditions: 5 mg/kg i.p., C57Bl/6 mice
Experimental: CNS Bioavailability & NOX Measurement. All experiments were performed on either male C57B1/6 mice (Charles River Laboratory) or eNOS(−/−) animals. Animals were injected (i.p.) at various time points before sacrifice at the doses specified. After euthanasia via CO2, plasma was collected, and cortices and hippocampi were collected after PBS perfusion and stored at −80° C. Tissue samples were weighed and extracted with methanol. Plasma samples were extracted with cold acetonitrile. Quantitative analysis of drug concentrations in plasma and brain used internal standards spiked into plasma and brain homogenates before liquid extraction with acetonitrile or methanol, and separation and measurement was performed with LC-MS/MS tandem mass spectrometry. The supernatant (deproteinized) was analyzed by chemiluminescence with SIEVERS 280i nitric oxide analyzer.
Brain and plasma NO levels were assessed by measuring metabolic oxidation products, NO2^− and NO3^− (NOx), using chemiluminescence detection. […] To assess the relative contribution of eNOS, DMA and NO-DMA were administered to eNOS(−/−) animals.

| SMILES | neuroprotection (cell survival by MTT) [1] | blood brain barrier permeability [2] |
| --- | --- | --- |
| C[C@]12CC[C@@H]3c4ccc(O)cc4CC[C@H]3[C@@H]1CC[C@@H]2O [Estradiol, estradiol] | elicit neuroprotection | – |
| Oc1ccc(-c2sc3cc(O)ccc3c2Oc2ccc(OCCN3CCCCC3)cc2)cc1 [DMA, desmethylarzoxifene] | – | substantial blood brain barrier permeability |
